Data reported in patent US12522827B2 (priority 2021, dated 2026).
Some entries share one result that the patent states for a list of compounds. l = locked nucleic acid (LNA); d = 2'-deoxy (DNA)

Each substance was assayed on SARS-CoV-2-nLuc virus.
Format: cell-based

Substance	inhibition of viral replication [log 10]
+CC+CC+ACC+CA+C (CCCCACCCAC; antisense; sugars from the 5' end ldldlddldl, backbone and methylation of C not given here) [LNA-6769-5P.6, miR-6769 targeted]	≥ 1
+G+A+A+ATCTCTACA+G+A+A+G (GAAATCTCTACAGAAG; antisense; LNA at 1, 2, 3, 4, 13, 14, 15, 16, other sugars and backbone not given here) [LNA-3675.3, miR-3675 targeted]	≥ 1
+G+A+CGTGATATATG+T+G+G (GACGTGATATATGTGG; antisense; sugars from the 5' end l3 d10 l3, backbone and methylation of C not given here) [Cov1.1]	≥ 1
+G+A+GCTGCTTTTGG+G+A+T (GAGCTGCTTTTGGGAT; antisense; sugars from the 5' end l3 d10 l3, backbone and methylation of C not given here) [LNA-191.8, miR-191 targeted]	≥ 1
+G+A+GTTGGACGTG+T+G+T (GAGTTGGACGTGTGT; antisense; sugars from the 5' end l3 d9 l3, backbone and methylation of C not given here) [Cov 7.7]	≥ 1
+G+A+T+TAAAGATTG+C+T+A+T (GATTAAAGATTGCTAT; antisense; sugars from the 5' end l4 d8 l4, backbone and methylation of C not given here) [Cov 11.1]	≥ 1
+G+A+TGCCCTGGC+C+T+G (GATGCCCTGGCCTG; antisense; LNA at 1, 2, 3, 12, 13, 14, other sugars and backbone not given here) [LNA-4749.4, miR-4749 targeted]	≥ 1
+G+A+TTTTAAAGT+T+C+G+T (GATTTTAAAGTTCGT; antisense; sugars from the 5' end l3 d8 l4, backbone and methylation of C not given here) [Cov 6.4]	≥ 1
+G+C+AACACGGAC+G+A+A+A (GCAACACGGACGAAA; antisense; sugars from the 5' end l3 d8 l4, backbone and methylation of C not given here) [Cov 3.2-2]	≥ 1
+G+C+AACACGGACG+A+A+A+C (GCAACACGGACGAAAC; antisense; sugars from the 5' end l3 d9 l4, backbone and methylation of C not given here) [Cov 3.2]	≥ 1
+G+C+G+GCGCCCCG+C+C+T (GCGGCGCCCCGCCT; antisense; sugars from the 5' end l4 d7 l3, backbone and methylation of C not given here) [LNA-663.1, miR-663 targeted]	≥ 1
+G+C+T+CTTCCATAT+A+G+G (GCTCTTCCATATAGG; antisense; sugars from the 5' end l4 d8 l3, backbone and methylation of C not given here) [Cov 13.9]	≥ 1
+G+C+TCTCCATCTTA+C+C+T (GCTCTCCATCTTACCT; antisense; sugars from the 5' end l3 d10 l3, backbone and methylation of C not given here) [Cov 14.3]	≥ 1
+G+C+TGTCGCCCG+T+G+T (GCTGTCGCCCGTGT; antisense; sugars from the 5' end l3 d8 l3, backbone and methylation of C not given here) [LNA-602.6, miR-602 targeted]	≥ 1
+G+CA+AC+ACG+GAC+GAA+A+C (GCAACACGGACGAAAC; antisense; sugars from the 5' end lldldlddlddlddll, backbone and methylation of C not given here) [Cov 3.2-4]	≥ 1
+G+CAA+CAC+GGA+CGA+A (GCAACACGGACGAA; antisense; sugars from the 5' end llddlddlddlddl, backbone and methylation of C not given here) [Cov 3.2-6]	≥ 1
+G+CAA+CAC+GGA+CGA+AA+C (GCAACACGGACGAAAC; antisense; sugars from the 5' end llddlddlddlddldl, backbone and methylation of C not given here) [Cov 3.2-5]	≥ 1
+G+G+ACGTGTGTTTT+C+T+C (GGACGTGTGTTTTCTC; antisense; sugars from the 5' end l3 d10 l3, backbone and methylation of C not given here) [Cov 7.9]	≥ 1
+G+G+TTTCGTCCGT+G+T+T (GGTTTCGTCCGTGTT; antisense; LNA at 1, 2, 3, 13, 14, 15, other sugars and backbone not given here) [LNA-602.1, miR-602 targeted]	≥ 1

Substance	inhibition of viral replication [log 10]
+G+GTTTCG+T+C+C (GGTTTCGTCC; antisense; sugars from the 5' end l2 d5 l3, backbone and methylation of C not given here) [LNA-191.2, miR-191 targeted]	≥ 1
+G+T+A+GTGTTGGT+T+T+T (GTAGTGTTGGTTTT; antisense; sugars from the 5' end l4 d7 l3, backbone not given here) [Neg 18.2]	≥ 1
+G+T+GTTAGCCCTA+G+C+C (GTGTTAGCCCTAGCC; antisense; sugars from the 5' end l3 d9 l3, backbone and methylation of C not given here) [LNA-744.7, miR-744 targeted]	≥ 1
+G+T+TTCGGCCAT+G+T+G (GTTTCGGCCATGTG; antisense; sugars from the 5' end l3 d8 l3, backbone and methylation of C not given here) [LNA-942.3P.4, miR-942 targeted]	≥ 1
+G+T+TTCGTCCG+T+G+T (GTTTCGTCCGTGT; antisense; LNA at 1, 2, 3, 11, 12, 13, other sugars and backbone not given here) [LNA-4433b.1, miR-4433 targeted]	≥ 1
+GC+AA+CAC+GG+ACG+AAA+C (GCAACACGGACGAAAC; antisense; sugars from the 5' end ldldlddldlddlddl, backbone and methylation of C not given here) [Cov 3.2-3]	≥ 1
+GCC+ATGC+TGATCCC+TGTCCCC+AT (GCCATGCTGATCCCTGTCCCCAT; antisense; sugars from the 5' end lddldddlddddddlddddddld, backbone and methylation of C not given here) [LNA-6810.3, miR-6810 targeted]	≥ 1
+GCG+CCC+AGCC+CCG+C (GCGCCCAGCCCCGC; antisense; LNA at 1, 4, 7, 11, 14, other sugars and backbone not given here) [LNA-4508.1, miR-4508 targeted]	≥ 1
+GG+TT+TC+GTC+C (GGTTTCGTCC; antisense; sugars from the 5' end ldldldlddl, backbone and methylation of C not given here) [LNA-191.1, miR-191 targeted]	≥ 1
+T+A+A+AACCAACAC+T+A+C+C (TAAAACCAACACTACC; antisense; sugars from the 5' end l4 d8 l4, backbone and methylation of C not given here) [Cov 18.1]	≥ 1
+T+A+A+AGATTGCT+A+T+G+T+G (TAAAGATTGCTATGTG; antisense; sugars from the 5' end l4 d7 l5, backbone and methylation of C not given here) [Cov 11.2]	≥ 1
+T+A+A+AGTTCGTT+T+A+G+A (TAAAGTTCGTTTAGA; antisense; sugars from the 5' end l4 d7 l4, backbone and methylation of C not given here) [Cov 6.5]	≥ 1
+T+A+CACATTAGGG+C+T+C (TACACATTAGGGCTC; antisense; sugars from the 5' end l3 d9 l3, backbone and methylation of C not given here) [Cov 13.6]	≥ 1
+T+A+GCCCTAGCCCC+G+C+A (TAGCCCTAGCCCCGCA; antisense; sugars from the 5' end l3 d10 l3, backbone and methylation of C not given here) [LNA-744.2, miR-744 targeted]	≥ 1
+T+A+GGGCTCTTCC+A+T+A (TAGGGCTCTTCCATA; antisense; sugars from the 5' end l3 d9 l3, backbone and methylation of C not given here) [Cov 13.8]	≥ 1
+T+C+A+TGTGGTAGT+G+T+T (TCATGTGGTAGTGTT; antisense; sugars from the 5' end l4 d8 l3, backbone and methylation of C not given here) [Neg 18.4]	≥ 1
+T+C+A+TGTGGTAGT+G+T+T+G (TCATGTGGTAGTGTTG; antisense; sugars from the 5' end l4 d8 l4, backbone and methylation of C not given here) [Neg 18.3]	≥ 1
+T+C+ACACCCGGACG+A+A+A (TCACACCCGGACGAAA; antisense; sugars from the 5' end l3 d10 l3, backbone and methylation of C not given here) [Cov 8.3]	≥ 1
+T+C+AGCAGCAGAT+T+T+C (TCAGCAGCAGATTTC; antisense; sugars from the 5' end l3 d9 l3, backbone and methylation of C not given here) [Cov 2.2]	≥ 1
